Data taken from article PMC4840320 (Scientific Reports, 2016).
These are yes or no findings as the source states them, for the method shown. In cells and extracts the contact can be indirect. Some binding calls cover weakened binding; strength is not graded here. Tags and fused reporters may be left off the sequences shown.

Chains of the proteins cited; added tags and fusions are not shown.
UniProt Q10658: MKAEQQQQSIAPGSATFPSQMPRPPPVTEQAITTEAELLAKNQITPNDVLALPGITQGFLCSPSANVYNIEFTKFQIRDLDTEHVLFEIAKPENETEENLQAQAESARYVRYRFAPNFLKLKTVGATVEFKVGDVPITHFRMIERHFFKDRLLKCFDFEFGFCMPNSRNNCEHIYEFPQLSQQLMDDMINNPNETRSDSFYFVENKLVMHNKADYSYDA

Legend:
[1] = target: UNC-119 with a BiFC tag (Venus fragment) in C. elegans (C. elegans) (UniProt Q10658); assay: split reporter; Venus-based BiFC in unc-119, arl-3 double mutant C. elegans (data not shown)
[2] = target: UNC-119 with a BiFC tag (Venus fragment) in C. elegans (C. elegans) (UniProt Q10658); assay: split reporter; Venus-based BiFC in live transgenic C. elegans (N2 background; the ARL-13 pairs also in arl-3 or unc-119 mutants); signal in the InV-like compartment of cilia

binding [1]: binds
binding [2]: binds
B1: ARL-3(DN) with a BiFC tag (Venus fragment) in C. elegans (protein, UniProt O45379 1-184)
chain: MGLIDVLKSFKSPSGREIRILLLGLDNAGKNTILKQLSSEDVQHVTPTKGFNVKTVAAMGDIRLNVWDIGGQRSIRPYWSNYYENIDTLIFVIDSNDKKRFDEMNIELGELLDEEKLRKVPVLIFANKQDLVTAASSEEITRKLNLDLLRDRTWHIQACSALKNEGINDGITWVASNLKPASKK
